Results of single-concentration screens

Chains of the proteins cited; added tags and fusions are not shown. Residues count along the entry.
UniProt Q4DA54, 1-478: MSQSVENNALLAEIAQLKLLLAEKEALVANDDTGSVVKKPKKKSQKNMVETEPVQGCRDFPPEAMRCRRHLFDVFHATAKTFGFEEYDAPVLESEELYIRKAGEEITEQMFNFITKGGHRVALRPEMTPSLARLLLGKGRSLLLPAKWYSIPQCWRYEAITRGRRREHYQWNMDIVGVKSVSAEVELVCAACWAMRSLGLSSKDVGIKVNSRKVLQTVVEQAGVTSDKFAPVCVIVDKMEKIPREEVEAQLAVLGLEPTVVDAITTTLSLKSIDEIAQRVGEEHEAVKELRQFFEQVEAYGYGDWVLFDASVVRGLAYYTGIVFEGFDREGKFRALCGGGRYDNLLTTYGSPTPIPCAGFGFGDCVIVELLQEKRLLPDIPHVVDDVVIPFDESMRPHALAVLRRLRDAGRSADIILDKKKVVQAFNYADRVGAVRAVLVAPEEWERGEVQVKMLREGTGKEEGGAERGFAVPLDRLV
UniProt P9WNZ1, whole entry: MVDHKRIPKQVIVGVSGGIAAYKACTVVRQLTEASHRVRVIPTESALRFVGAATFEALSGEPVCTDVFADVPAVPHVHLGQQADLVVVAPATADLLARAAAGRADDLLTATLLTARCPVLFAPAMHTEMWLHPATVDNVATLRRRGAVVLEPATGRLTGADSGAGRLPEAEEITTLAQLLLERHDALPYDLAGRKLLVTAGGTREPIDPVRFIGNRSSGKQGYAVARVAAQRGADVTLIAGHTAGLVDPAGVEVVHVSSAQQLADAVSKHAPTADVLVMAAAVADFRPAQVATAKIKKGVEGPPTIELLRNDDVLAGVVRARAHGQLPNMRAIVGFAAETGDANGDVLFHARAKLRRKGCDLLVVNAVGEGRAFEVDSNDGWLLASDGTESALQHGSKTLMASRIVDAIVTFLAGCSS
UniProt A4I591, 1-473: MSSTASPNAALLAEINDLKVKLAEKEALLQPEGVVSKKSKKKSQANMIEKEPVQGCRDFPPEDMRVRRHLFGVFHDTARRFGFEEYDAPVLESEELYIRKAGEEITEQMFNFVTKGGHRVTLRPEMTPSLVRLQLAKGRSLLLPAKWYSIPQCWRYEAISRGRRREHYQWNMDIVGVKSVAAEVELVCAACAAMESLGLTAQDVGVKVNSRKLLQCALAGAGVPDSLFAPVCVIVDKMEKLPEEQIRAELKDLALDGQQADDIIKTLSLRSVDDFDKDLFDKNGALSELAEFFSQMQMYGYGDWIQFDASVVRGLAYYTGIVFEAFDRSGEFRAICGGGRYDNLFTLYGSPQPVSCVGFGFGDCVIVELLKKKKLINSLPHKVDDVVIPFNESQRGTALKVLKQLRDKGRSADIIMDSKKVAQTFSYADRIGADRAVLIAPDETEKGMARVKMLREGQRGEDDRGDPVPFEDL

Data taken from ChEMBL document CHEMBL3988442, “University of Dundee, Small-Polar-MMV Screening Library” (2021).

A: 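Enzyme assay of histidyl-tRNA synthetase; the read-out is not stated. Target: Histidine-tRNA ligase, Trypanosoma cruzi CL Brener (UniProt Q4DA54). Concentration: 30 µM. The record gives no direction; compounds that gave an IC50 in retests scored well above the rest, so higher reads as stronger inhibition. Size under these conditions: about 69,000 compounds, about 31 of them at 50% or above in at least one test.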
B: 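Enzyme assay of CoaBC with a phosphate dye (Biomol Green) read at 650 nm. Target: Coenzyme A biosynthesis protein CoaBC, Mycobacterium tuberculosis (UniProt P9WNZ1). Concentration: 30 µM. Higher reads as stronger inhibition, judged from the few compounds that gave an IC50. Most strong results did not repeat in a second test. About 67,000 compounds were tested under these conditions; 0.06% (about 40) showed 50% or more at least once.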
C: 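Histidine-tRNA ligase, Leishmania infantum (UniProt A4I591). Enzyme assay of histidyl-tRNA synthetase; the read-out is not stated. Compounds at 30 µM. Direction is inferred from retests: higher values go with stronger inhibition. The assay is labelled LdHisRS but filed under L. infantum. Size under these conditions: about 69,000 compounds, about 410 of them at 50% or above in at least one test.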

The filed quantity is “Percent Effect” (%).
How 0% and 100% were set is not recorded. Most values in the screen are low, and negative values occur.
The compounds are a random part of those screened.
Two or more numbers in one place are separate tests of the same structure; such repeats can differ widely.

| # | compound | A | B | C |
|---|---|---|---|---|
| 1 | `CC(NC(=O)N1CCS(=O)(=O)CC1)c1c(F)cccc1Cl` (stereo not given) | 8.247 | 6.04 | 19.54 |
| 2 | `COc1ccc2c(c1)CC(NCCCn1cc(C)cn1)CC2` (stereo not given) | 7.937 | 1.446 | 27.4 |
| 3 | `CC(CN1CCOCC1)n1cncc1-c1cnn(Cc2ccccc2)c1` (stereo not given) | 2.825 | -7.748 | 6.993 |
| 4 | `CCN1CCN(S(=O)(=O)c2c[nH]c(C(C)C)n2)c2ccccc21` | -0.5236 | 3.64 | 20.69 |
| 5 | `COc1ccc(NC2(C(=O)N3CCn4cncc4C3)CCCC2)cc1` | 10.26 | 8.955 | 32.65 |
| 6 | `Cc1nnc(C2CCN(c3ccccc3)CC2)o1` | 2.326 | -0.3681 | 11.35 |
| 7 | `CC(=O)N1N=C(COc2ccc(Cl)cc2)OC1c1ccccc1` (stereo not given) | -2.439 | 1.519 | 18.42 |
| 8 | `CCC(CO)NC(=O)c1cc(COc2ccc(OC)cc2Cl)[nH]n1` (stereo not given) | 19.05 | 1.351 | 17.05 |
| 9 | `O=C(c1ccccc1)N1C[C@@H]2CCCO[C@@H]2[C@H](N2CCOCC2)C1` | 5.376 | -1.903 | 17.54 |
| 10 | `c1ccc(OC2COC3(CCN(CC4CC4)CC3)C2)nc1` (stereo not given) | 6.122 | 1.854 | 11 |
| 11 | `CCc1cccc(NC(=O)N2CCn3cnc(COC)c3C2)c1` | -5 | 1.976 | 12.33 |
| 12 | `Cc1cc(NS(=O)(=O)CC2CCCCO2)ccc1F` (stereo not given) | 3.415 | 1.38 | 15.25 |
| 13 | `COc1cccc(OC)c1-c1ccnc2cc(CC(=O)N(C)C)nn12` | 2.26 | 1.566 | 8.571 |
| 14 | `Cc1nc(CCCNC(=O)c2c(F)cccc2Br)n[nH]1` | 11.88 | 3.155 | 16.67 |
| 15 | `Cc1ccc(CSc2ncc(Br)c(C(=O)O)n2)cc1` | -3 | -4.116 | 4.348 |
| 16 | `CCNS(=O)(=O)c1cnccc1N1CCN(CCO)CC1` | 7.018 | -9.133 | 8.929 |
| 17 | `CCn1cc(NS(=O)(=O)c2ccc(F)cc2)c(C(=O)NCC(C)C)n1` | 1.031 | -3.579 | 3.448 |
| 18 | `O=c1[nH]c2nc(N3CCCC3)ncc2c(=O)n1-c1cccc(F)c1` | -1.242 | 2.658 | 20 |
| 19 | `c1cnn(C2CN(c3nc(-c4ccncc4)nc4c3CCC4)C2)c1` | 9.091 | 7.543 | 15.56 |
| 20 | `O=C(CN1CC(c2nc(-c3cccs3)no2)C1)NCC1CCCO1` (stereo not given) | 4.124 | 6.554 | 17.39 |
| 21 | `CCN(CC)S(=O)(=O)N1CC[C@H](c2ccccc2)[C@H]2NCCCC[C@H]21` | 4.478 | 2.19 | 3.158 |
| 22 | `CNc1cc(-c2ccc(COCCN)cc2)c2cc[nH]c2n1` | 4.878 | 8.734 | 20.48 |
| 23 | `Cc1nc(C)n(C2CCCN(C(=O)c3sccc3C3CC3)C2)n1` (stereo not given) | 6.767 | 2.571 | -1.124 |
| 24 | `CN(C)C(Cn1ccnc1-c1nccn1C)c1ccccc1Cl` (stereo not given) | 8.081 | -1.535 | 18.03 |
| 25 | `CN(Cc1ccco1)C[C@H]1OC[C@@H]2CN(c3ncc(F)cn3)CC[C@@H]21` | 10.61 | 3.03 | 17.31 |
| 26 | `Cc1ccc(C(=O)N2CC(C(N)=O)O[C@H](C)C2)c(F)c1` (stereo not given in full) | 0.5525 | 4.119 | 4.225 |
| 27 | `O=C(Nc1ccc(=O)n(Cc2ccccc2Cl)c1)C1CC1` | 7.317 | 5.696 | 114.5 |
| 28 | `CS(=O)(=O)c1ccc2c(c1)nc1n2[C@@H](CNCc2cccnc2)COC1` | 10.89 | -16.03 | 19.44 |
| 29 | `CC(C)CCC(=O)N1CCN(C(=O)c2ccc3nccn3c2)CC1` | 12.66 | 0.2404 | 16.67 |
| 30 | `CCOc1ccc(S(=O)(=O)N(CCOC)Cc2ccncc2)cc1F` | 12.02 | 3.69 | 24.39 |
| 31 | `O=C(N1CCOCC1)N1CCC2(CCNC2)C1` (stereo not given) | 8.738 | 2.545 | 11.65 |
| 32 | `Cc1n[nH]c(C)c1CC(=O)N1CCN(C)C2(CCNC(=O)CC2)C1` (stereo not given) | -0.6494 | 1.814 | 9.677 |
| 33 | `CCc1nc(CN2CCCC(Nc3ncnc4ccsc34)C2)no1` (stereo not given) | 15.97 | 5.242 | 14.04 |
| 34 | `Cc1cc(=O)[nH]c(NCCNC(=O)C(c2ccc(F)cc2)N(C)C)n1` (stereo not given) | 2.479 | 1.935 | 5.714 |
| 35 | `Cc1nccnc1-n1c(COCC(=O)O)nc2c(C)cccc21` | 5.682 | 16.93 and 79.01 | 45 |
| 36 | `COCC(C)N(C)C(=O)c1ccc2nncn2c1` (stereo not given) | 4.124 | 7.692 | 8.571 |
| 37 | `COc1ncccc1NC(=O)NCC1CCS(=O)(=O)C1` (stereo not given) | -0.7634 | -1.687 | -30.14 |
| 38 | `Cc1cnc(N2C[C@@H]3CN(C4CCOC4)CCC[C@]3(C(=O)O)C2)nc1` (stereo not given in full) | 4.42 | 1.238 | 8.108 |
| 39 | `COCC(=O)N1CCC2(COCc3cnc(-c4ccccc4)nc32)C1` (stereo not given) | 1.98 | 1.794 | 17.81 |
| 40 | `COCC(=O)N1CCCC(c2cc(C(F)F)n3ncnc3n2)C1` (stereo not given) | 7.447 | 7.598 | 17.71 |
| 41 | `CC(C)CCN1C[C@H]2C[C@H](C(=O)Nc3cccnc3)[C@@H](C1)O2` | 6.863 | 3 | 20 |
| 42 | `c1cnc(N2CCC3(CCN(Cc4cccnc4)CC3)CC2)nc1` | 10.92 | -1.42 | -35.78 |
| 43 | `CN(Cc1ccc(Cl)s1)C(=O)c1cccc(OCC(N)=O)c1` | 2.5 | 4.051 | 19.23 |
| 44 | `CSC1=Nc2c(cnn2-c2ccc(Cl)cc2)C2=NCCCN12` | 4.142 | 1.579 | 2.759 |
| 45 | `Cc1ccc(C(=O)N2CCC3(CCCN(c4ccc(C)nn4)C3)C2)cn1` (stereo not given) | 12.37 | 7.635 | 20 |

Once more, the final 2:

* CSC1=Nc2c(cnn2-c2ccc(Cl)cc2)C2=NCCCN12 : A: 4.142%; B: 1.579%; C: 2.759%
* Cc1ccc(C(=O)N2CCC3(CCCN(c4ccc(C)nn4)C3)C2)cn1 (stereo not given) : A: 12.37%; B: 7.635%; C: 20%